Results are given in words; binding and its absence hold for the method and conditions named.
Target: T1, Recombinant forkhead box protein A1 (FoxA1) (UniProt P55317)
T1 sequence: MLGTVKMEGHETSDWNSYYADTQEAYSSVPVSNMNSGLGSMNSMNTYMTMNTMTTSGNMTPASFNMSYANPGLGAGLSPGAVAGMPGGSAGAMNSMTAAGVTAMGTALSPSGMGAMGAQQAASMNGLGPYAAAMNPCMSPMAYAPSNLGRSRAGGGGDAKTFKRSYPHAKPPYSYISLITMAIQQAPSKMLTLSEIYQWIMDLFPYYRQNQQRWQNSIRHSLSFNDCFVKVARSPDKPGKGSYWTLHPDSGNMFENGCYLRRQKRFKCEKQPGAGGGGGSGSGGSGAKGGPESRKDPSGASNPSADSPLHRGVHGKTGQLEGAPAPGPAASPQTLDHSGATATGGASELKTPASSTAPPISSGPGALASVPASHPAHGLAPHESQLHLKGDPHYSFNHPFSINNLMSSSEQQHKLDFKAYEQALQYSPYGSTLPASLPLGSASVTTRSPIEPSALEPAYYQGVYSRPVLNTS
Assay: immobilized template assay; recombinant FoxA1 and ERα mixed with an immobilised DNA template having the FoxA1 binding sequence; precipitated fractions analysed by western blotting; both purified

Sequences of proteins named here, by UniProt entry; tags and fusion partners are left off.
UniProt P03372: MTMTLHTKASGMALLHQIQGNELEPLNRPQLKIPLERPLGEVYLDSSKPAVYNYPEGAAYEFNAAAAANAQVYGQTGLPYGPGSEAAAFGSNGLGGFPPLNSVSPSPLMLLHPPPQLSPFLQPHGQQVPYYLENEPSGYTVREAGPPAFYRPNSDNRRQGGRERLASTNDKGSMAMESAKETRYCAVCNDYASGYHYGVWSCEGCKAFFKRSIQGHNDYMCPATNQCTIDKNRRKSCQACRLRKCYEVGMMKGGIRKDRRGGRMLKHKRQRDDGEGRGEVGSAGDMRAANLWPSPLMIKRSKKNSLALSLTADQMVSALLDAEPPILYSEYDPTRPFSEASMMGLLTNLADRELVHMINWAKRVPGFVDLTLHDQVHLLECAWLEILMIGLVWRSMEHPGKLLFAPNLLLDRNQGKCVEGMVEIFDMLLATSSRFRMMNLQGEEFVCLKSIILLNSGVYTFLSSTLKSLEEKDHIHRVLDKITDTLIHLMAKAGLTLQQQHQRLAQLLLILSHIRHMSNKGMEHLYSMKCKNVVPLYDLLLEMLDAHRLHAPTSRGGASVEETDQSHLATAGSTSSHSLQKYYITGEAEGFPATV

binding: no binding
Substance: Recombinant estrogen receptor alpha (ERα) (from UniProt P03372 1-595) (other; other documents disagree on this pair)
